Test results as given in publication PMC1868955, “Crystal Structure of the P Pilus Rod Subunit PapA” (PLoS Pathogens, 2007).
No constants are given. Whether binding was seen depends on the method and setting. Some entries that bind do so weakly or less than the wild type. For some of these results: Tags and fused reporters may be left off the sequences shown.

Assays:
[1] = target: PapA wild-type (uropathogenic Escherichia coli) (UniProt P04127); assay: SEC; fractions of the PapD/(PapA)2 peak pooled and run again on gel filtration 24 hours later; unpublished data; both purified
[2] = target: PapA wild-type (uropathogenic Escherichia coli) (UniProt P04127); assay: negative-stain electron microscopy; PapD/PapA samples frozen and thawed five times at 150 μg/ml in 10–20 mM TrisHCl pH 7.6, 20–50 mM NaCl; used the same day or kept at 4 °C up to 40 d; 1% uranyl acetate; both purified
[3] = target: PapA wild-type (uropathogenic Escherichia coli) (UniProt P04127); assay: SEC; gel filtration of co-expressed PapDHis/PapA complexes immediately after purification; Superdex75 120 ml, 20 mM TrisHCl pH 7.5, 20 mM NaCl; both purified
[4] = target: T1, PapDHis (uropathogenic Escherichia coli) (UniProt P15319); assay: as above
T1 sequence: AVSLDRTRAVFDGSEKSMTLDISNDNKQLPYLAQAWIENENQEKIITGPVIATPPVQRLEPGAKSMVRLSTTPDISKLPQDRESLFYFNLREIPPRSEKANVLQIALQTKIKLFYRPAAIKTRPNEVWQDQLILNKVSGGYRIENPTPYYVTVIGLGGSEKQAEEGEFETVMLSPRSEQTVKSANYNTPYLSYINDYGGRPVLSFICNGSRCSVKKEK

Measured: binding

B1: PapA wild-type (protein, UniProt P04127 23-185)
chain: APTIPQGQGKVTFNGTVVDAPCSISQKSADQSIDFGQLSKSFLEAGGVSKPMDLDIELVNCDITAFKGGNGAKKGTVKLAFTGPIVNGHSDELDTNGGTGTAIVVQGAGKNVVFDGSEGDANTLKDGENVLHYTAVVKKSSAVGAAVTEGAFSAVANFNLTYQ
binds: all assays above
